Results are given in words; binding and its absence hold for the method and conditions named. Binding seen in cells or lysates may run through a third protein. Some binding calls cover weakened binding; strength is not graded here.

For assay [1], the target named is voltage-gated Na+ channel Nav1.5, endogenous in neonatal rat cardiomyocytes (rat (endogenous in NRCMs)) (UniProt P15389). Briefly: co-IP; endogenous proteins; neonatal rat cardiomyocytes (NRCMs) and adult mouse heart extracts.
Assay [2] addresses Nav1.5, endogenous in mouse heart (mouse (endogenous in heart)) (UniProt Q9JJV9). The description is as above.

B1: human leukocyte antigen F-associated transcript 10 (FAT10), endogenous in neonatal rat cardiomyocytes (protein, UniProt Q921A3 1-161)
chain: MASCVCVVRSEQWPLMTFDTTMSDKVKKINEHIRSQTKVSVQDQILLLDSKILKPHRALSSYGIDKENTIHLTLKVVKPSDEELPLSLVESGDEGQRHLLRVRRSSSVAQVKEMIENVTAVPPKKQIVNCNGKRLEDGKIMADYNIKSGSLLFLTAHCIGG
Take B1: the binding result in assay [1] is “binds”.

B2: FAT10, endogenous in mouse heart (protein, UniProt P63072 1-162)
chain: MASVRTCVVRSDQWRLMTFETTENDKVKKINEHIRSQTKVSVQDQILLLDSKILKPHRKLSSYGIDKETTIHLTLKVVKPSDEELPLFLVESKNEGQRHLLRVRRSSSVAQVKEMIESVTSVIPKKQVVNCNGKKLEDGKIMADYNIKSGSLLFLTTHCTGG
As for B2, in assay [2], the binding result is “binds”.

The values are drawn from article PMC7790828.
